# Reference: patent publication US10526385B2, “YAP protein inhibiting polypeptide and application thereof” (BAO KANG BIOMEDICAL HEALTHCARE INC, priority 2013, dated 2020)
# Not every detail of the peptide structures is certain; ends, links or a residue may be inferred. Where a SMILES comes first, the peptide text is derived from it. Bridges are numbered along the chain shown (N, C = ends). [ ]: non-standard residue; d: D form. hCys = N[C@@H](CCS)C(=O)O; Orn = NCCC[C@H](N)C(=O)O; Dab = NCC[C@H](N)C(=O)O
# Target: TEAD
# Assay: TEAD binding / inhibition of YAP-TEAD binding (TR-FRET test)
SMILES,IC50 (Table 3) [µM],IC50 (Table 4) [µM]
CC(C)C[C@@H]1NC(=O)[C@@H](NC(=O)[C@H](Cc2ccccc2)NC(=O)[C@@H]2CCCN2C(=O)[C@@H](N)C(C)C)CCSSC[C@@H](C(=O)N[C@@H](CCCCN)C(=O)N2CCC[C@H]2C(=O)N2CCC[C@H]2C(=O)N[C@@H](CCC(=O)O)C(=O)O)NC(=O)[C@H](Cc2ccccc2)NC(=O)[C@H](CO)NC(=O)[C@H](CC(=O)O)NC(=O)[C@@H]2CCCN2C(=O)[C@H](CC(C)C)NC(=O)[C@H](CCCN)NC(=O)[C@H](CCCNC(=N)N)NC1=O [compound 5] (H-VPF[hCys]LR[Orn]LPDSFCKPPE-OH; disulfide 4-13; N-terminus and C-terminus assumed),0.043,
CSCC[C@H](NC(=O)[C@@H]1CCCN1C(=O)[C@@H](N)C(C)C)C(=O)N[C@H]1CSSC[C@@H](C(=O)N[C@@H](Cc2c[nH]cn2)C(=O)N2CCC[C@H]2C(=O)N2CCC[C@H]2C(=O)N[C@@H](CCC(=O)O)C(=O)O)NC(=O)[C@H](Cc2ccccc2)NC(=O)[C@H](CO)NC(=O)[C@H](CCC(=O)O)NC(=O)[C@@H]2CCCN2C(=O)[C@H](CC(C)C)NC(=O)[C@H](CCCCN)NC(=O)[C@H](CCCNC(=N)N)NC(=O)[C@H](CC(C)C)NC1=O [compound 8] (H-VPMCLRKLPESFCHPPE-OH; disulfide 4-13; N-terminus and C-terminus assumed),,0.028
CC(C)C[C@@H]1NC(=O)[C@@H](NC(=O)[C@H](Cc2ccccc2)NC(=O)[C@@H]2CCCN2C(=O)[C@@H](N)C(C)C)CCSSC[C@@H](C(=O)N[C@@H](CCCCN)C(=O)N2CCC[C@H]2C(=O)N2CCC[C@H]2C(=O)N[C@@H](CCC(=O)O)C(=O)O)NC(=O)[C@H](Cc2ccccc2)NC(=O)[C@H](CO)NC(=O)[C@H](CC(=O)O)NC(=O)[C@@H]2CCCN2C(=O)[C@H](CC(C)C)NC(=O)[C@H](CCN)NC(=O)[C@H](CCCNC(=N)N)NC1=O [compound 6] (H-VPF[hCys]LR[Dab]LPDSFCKPPE-OH; disulfide 4-13; N-terminus and C-terminus assumed),0.028,
CSCC[C@H](NC(=O)[C@@H]1CCCN1C(=O)[C@@H](N)C(C)C)C(=O)N[C@H]1CCSSC[C@@H](C(=O)N[C@@H](CC(=O)O)C(=O)N2CCC[C@H]2C(=O)N2CCC[C@H]2C(=O)N[C@@H](CCC(=O)O)C(=O)O)NC(=O)[C@H](Cc2ccccc2)NC(=O)[C@H](CO)NC(=O)[C@H](CS)NC(=O)[C@@H]2CCCN2C(=O)[C@H](CC(C)C)NC(=O)[C@H](CCCCN)NC(=O)[C@H](CCCNC(=N)N)NC(=O)[C@H](CC(C)C)NC1=O [compound 9] (H-VPM[hCys]LRKLPCSFCDPPE-OH; disulfide 4-13),,0.025
